Record: PubChem BioAssay AID1259260 (Sanger Institute, 2017)
This is a random part of 794 reagents tested. Of all reagents, 13 (1.6%) got an active call. 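Calls reflect only knock-down without drug; synergy above 0.15 was grouped apart and does not change the call.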 Entries without a mark were called inactive. Viability is capped at 1. Not all columns of the deposit are shown. Not given: the amount of reagent, the time to read-out.

Purpose: 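Kinome knock-down with three anchor drugs to find synergy partners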 (primary screen)
Cell system: human NCI-H716 colorectal cancer cells
Reagent: siRNA pool against human genes
Conditions: anchor drugs BYL719 (alpelisib) 1 µM, cetuximab 5 µg/ml or trametinib 10 nM, each at a dose chosen to harm viability only mildly; DMSO vehicle for the knock-down-alone arm
Measurement: 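Mean viability over replicates against non-targeting siRNA, robust z-score without drug, and per-drug synergy comparing combined with single treatments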
Direction: viability robust z-score, siRNA alone: higher = more surviving cells; below -3 called essential; viability vs control, no drug: higher = more surviving cells; synergy score with BYL719: higher = stronger synergy (synthetic lethality) with drug
Rule for the call: 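a knock-down counts as essential if its no-drug robust z-score is lower than -3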
Meaning of the calls: active = essential (knock-down alone lowers viability); inactive = no essential effect

| Target gene | viability robust z-score, siRNA alone | viability vs control, no drug (fraction of control) | synergy score with BYL719 |
| --- | --- | --- | --- |
| DMPK (DM1 protein kinase) | -1.2 | 0.813 | -0.147 |
| PIK3CG | -0.12 | 0.925 | -0.0656 |
| VRK1 (VRK serine/threonine kinase 1) | 0.602 | 1 | -0.0726 |
| TRPM6 | 0.0821 | 0.946 | -0.207 |
| CDC73 (cell division cycle 73) | 0.602 | 1 | -0.186 |
| SHPK (sedoheptulokinase) | 0.0301 | 0.941 | 0.0732 |
| RBKS (ribokinase) | 0.602 | 1 | -0.281 |
| MAPK10 (mitogen-activated protein kinase 10) | 0.602 | 1 | -0.217 |
| WT1 (WT1 transcription factor) | 0.602 | 1 | -0.239 |
| UCKL1 (uridine-cytidine kinase 1 like 1) | 0.602 | 1 | -0.247 |
| ALPK2 (alpha kinase 2) | 0.602 | 1 | -0.116 |
| YES1 (YES proto-oncogene 1, Src family tyrosine kinase) | 0.602 | 1 | -0.207 |
| DNMT3A (DNA methyltransferase 3 alpha) | -0.471 | 0.888 | -0.0775 |
| NRBP1 (nuclear receptor binding protein 1) | 0.602 | 1 | -0.061 |
| FRK (fyn related Src family tyrosine kinase) | 0.602 | 1 | -0.283 |
| STK38 (serine/threonine kinase 38) | -0.518 | 0.884 | -0.18 |
| CSNK1E (casein kinase 1 epsilon) | -1.63 | 0.768 | -0.063 |
| HSPB8 (heat shock protein family B (small) member 8) | 0.326 | 0.971 | -0.24 |
| POLR2B (RNA polymerase II subunit B) | -1.8 | 0.751 | -0.0837 |
| PLK1 (polo like kinase 1) | -4.54 (active) | 0.465 | -0.217 |
| INSRR (insulin receptor related receptor) | 0.602 | 1 | -0.207 |
| TP53 (tumor protein p53) | 0.602 | 1 | -0.24 |
| BRSK1 (BR serine/threonine kinase 1) | -0.254 | 0.911 | -0.216 |
| KALRN (kalirin RhoGEF kinase) | 0.602 | 1 | -0.2 |
| FGR (FGR proto-oncogene, Src family tyrosine kinase) | -1.22 | 0.811 | -0.0457 |
| NEK1 (NIMA related kinase 1) | 0.602 | 1 | -0.256 |
| MKNK1 (MAPK interacting serine/threonine kinase 1) | 0.602 | 1 | -0.266 |
| TGFBR1 (transforming growth factor beta receptor 1) | -0.422 | 0.894 | -0.11 |
| CDK16 (cyclin dependent kinase 16) | -1.36 | 0.796 | -0.2 |
| HIPK4 (homeodomain interacting protein kinase 4) | 0.602 | 1 | -0.0919 |
| PDGFRA (platelet derived growth factor receptor alpha) | 0.602 | 1 | -0.0126 |
| PRPS2 (phosphoribosyl pyrophosphate synthetase 2) | 0.602 | 1 | -0.283 |
| PMVK (phosphomevalonate kinase) | 0.00334 | 0.938 | -0.03 |
| WIPF1 (WAS/WASL interacting protein family member 1) | -3.45 (active) | 0.579 | -0.132 |
| PRKG1 (protein kinase cGMP-dependent 1) | 0.602 | 1 | -0.0433 |
| CPNE3 (copine 3) | 0.602 | 1 | -0.00955 |
| MAGI2 | 0.602 | 1 | -0.0177 |
| TPK1 (thiamin pyrophosphokinase 1) | -2.06 | 0.723 | 0.0278 |
| PTEN (phosphatase and tensin homolog) | 0.602 | 1 | -0.133 |
| FLT3 (fms related receptor tyrosine kinase 3) | -1.65 | 0.766 | -0.073 |
| DCLK1 (doublecortin like kinase 1) | 0.602 | 1 | -0.108 |
| BLK (BLK proto-oncogene, Src family tyrosine kinase) | 0.146 | 0.953 | -0.132 |
| RPS6KL1 (ribosomal protein S6 kinase like 1) | 0.602 | 1 | -0.163 |
| ADCK5 (aarF domain containing kinase 5) | 0.602 | 1 | -0.196 |
| PRP4K (pre-mRNA processing factor kinase PRP4K) | 0.201 | 0.958 | -0.0864 |
| PRKAG2 (protein kinase AMP-activated non-catalytic subunit gamma 2) | 0.602 | 1 | -0.283 |
| CSF1R (colony stimulating factor 1 receptor) | -0.489 | 0.887 | -0.161 |
| EPHB2 (EPH receptor B2) | 0.602 | 1 | 0.134 |
| PRKCG (protein kinase C gamma) | 0.602 | 1 | -0.253 |
| GRK7 (G protein-coupled receptor kinase 7) | 0.602 | 1 | 0.161 |

An excerpt of the results above, for reference:
| Target gene | viability robust z-score, siRNA alone | viability vs control, no drug (fraction of control) | synergy score with BYL719 |
| --- | --- | --- | --- |
| CDK16 (cyclin dependent kinase 16) | -1.36 | 0.796 | -0.2 |
| HIPK4 (homeodomain interacting protein kinase 4) | 0.602 | 1 | -0.0919 |
| PDGFRA (platelet derived growth factor receptor alpha) | 0.602 | 1 | -0.0126 |
